No constants are given. Whether binding was seen depends on the method and setting. Binding seen in cells or lysates may run through a third protein. Some entries that bind do so weakly or less than the wild type. For some assays here: Where a sequence is shown, tags or fusion partners need not be part of it. Blank lines part the entries; values can stand above or below the molecule they belong to.
Tests used:
[1] = target: T1, Flag-tagged Nupr1 (UniProt O60356); assay: co-IP; lysate of LECs overexpressing Flag-tagged Nupr1 incubated with anti-Flag IP antibody 2 h at room temperature, Protein A/G magnetic beads, Western blot; cells with or without tunicamycin (TU), and TU promoted the interaction
T1 sequence: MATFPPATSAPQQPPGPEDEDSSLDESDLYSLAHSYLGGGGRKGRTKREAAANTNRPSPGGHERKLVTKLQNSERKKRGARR

The chains behind the UniProt entries cited, without tags or fusion partners.
UniProt P35638: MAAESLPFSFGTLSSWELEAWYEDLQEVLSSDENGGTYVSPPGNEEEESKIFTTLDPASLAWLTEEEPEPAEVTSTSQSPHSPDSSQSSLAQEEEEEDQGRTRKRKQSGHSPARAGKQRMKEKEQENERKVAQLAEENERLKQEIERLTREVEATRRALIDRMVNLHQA

[2] = target: C/EBP homologous protein (CHOP) (human (endogenous in HLECs)) (UniProt P35638); assay: co-IP; lysate of normal LECs incubated with anti-CHOP IP antibody 2 h at room temperature, Protein A/G magnetic beads, Western blot; cells with or without tunicamycin (TU), and TU promoted the interaction

binding [1]: binds
Molecule: C/EBP homologous protein (CHOP) (from UniProt P35638 1-169)

binding [2]: binds
B1: Nupr1 (protein, UniProt O60356 1-82)
chain: T1 sequence
